Measurements: patent publication US20030113320A1 (BURNHAM INSTITUTE, published 2003)
No constants are given. Whether binding was seen depends on the method and setting. Some results given as binding are weak or reduced against the parent protein; the word gives no strength.

Protein sequences, listed by entry. Tags and fused reporters are not part of them. Lines headed by an entry give the natural chain unless they say otherwise; changes in a name come on top.
UniProt P15144: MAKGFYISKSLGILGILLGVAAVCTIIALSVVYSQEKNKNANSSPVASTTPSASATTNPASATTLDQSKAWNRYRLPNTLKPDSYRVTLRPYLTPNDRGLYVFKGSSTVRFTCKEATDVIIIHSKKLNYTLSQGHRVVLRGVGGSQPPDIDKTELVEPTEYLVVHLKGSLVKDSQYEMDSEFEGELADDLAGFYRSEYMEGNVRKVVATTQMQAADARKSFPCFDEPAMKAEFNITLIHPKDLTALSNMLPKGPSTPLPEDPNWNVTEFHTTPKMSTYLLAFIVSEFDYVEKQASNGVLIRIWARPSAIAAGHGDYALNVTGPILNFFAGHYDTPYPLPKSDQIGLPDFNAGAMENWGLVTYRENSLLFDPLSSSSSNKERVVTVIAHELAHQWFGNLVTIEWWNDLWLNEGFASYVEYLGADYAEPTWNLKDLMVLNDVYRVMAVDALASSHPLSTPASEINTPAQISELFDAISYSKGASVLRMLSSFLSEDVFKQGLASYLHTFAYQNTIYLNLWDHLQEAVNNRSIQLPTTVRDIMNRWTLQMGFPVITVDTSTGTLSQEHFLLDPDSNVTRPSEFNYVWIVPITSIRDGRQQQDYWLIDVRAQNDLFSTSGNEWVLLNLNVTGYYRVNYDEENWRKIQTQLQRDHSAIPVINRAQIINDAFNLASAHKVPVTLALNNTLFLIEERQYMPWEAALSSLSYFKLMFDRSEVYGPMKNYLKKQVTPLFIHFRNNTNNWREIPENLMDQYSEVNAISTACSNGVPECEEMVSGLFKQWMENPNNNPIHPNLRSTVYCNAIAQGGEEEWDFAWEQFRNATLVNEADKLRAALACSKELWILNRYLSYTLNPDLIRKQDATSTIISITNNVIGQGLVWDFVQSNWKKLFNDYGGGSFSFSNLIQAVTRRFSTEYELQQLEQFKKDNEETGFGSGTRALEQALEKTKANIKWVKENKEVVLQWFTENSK

Columns and labels:
[1] = target: CD13/aminopeptidase N (CD13/APN), isolated from octylglucoside cell extracts (Homo sapiens (Human)) (UniProt P15144); assay: phage binding to CD13 immobilized by WM15 on microtiter wells (figure legend)
[2] = target: CD13/aminopeptidase N on CD13-transfected cells (Molt-4/CD13, MDA-MB-435/CD13) (Homo sapiens (Human)) (UniProt P15144); assay: phage binding to transfected cells; 2 x 10^9 TU per sample; bound phage counted by infection of bacteria
[3] = target: CD13/aminopeptidase N on CD13-transfected cells (Molt-4/CD13, MDA-MB-435/CD13) (Homo sapiens (Human)) (UniProt P15144); assay: phage binding to Molt-4 cells transfected with CD13 (figure legend)

Measured: binding

CNGRC (peptide, not shown: large carriers) [CNGRC (SEQ ID NO:8) phage]
binds: all assays above
